Results: paper PMC10890935

Amino acid sequences for entries named in this document (tags omitted). A change or cut given only in a name is not applied to a line headed by its entry.
UniProt A8LHT0: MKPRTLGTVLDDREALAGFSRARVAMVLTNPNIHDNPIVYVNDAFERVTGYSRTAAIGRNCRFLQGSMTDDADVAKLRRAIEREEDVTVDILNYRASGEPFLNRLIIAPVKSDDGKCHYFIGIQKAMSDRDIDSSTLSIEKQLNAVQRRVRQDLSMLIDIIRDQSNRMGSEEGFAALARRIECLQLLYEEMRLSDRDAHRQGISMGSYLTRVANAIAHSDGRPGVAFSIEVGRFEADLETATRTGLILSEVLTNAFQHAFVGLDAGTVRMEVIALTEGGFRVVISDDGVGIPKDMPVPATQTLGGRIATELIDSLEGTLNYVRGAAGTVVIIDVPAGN
UniProt A8LM40: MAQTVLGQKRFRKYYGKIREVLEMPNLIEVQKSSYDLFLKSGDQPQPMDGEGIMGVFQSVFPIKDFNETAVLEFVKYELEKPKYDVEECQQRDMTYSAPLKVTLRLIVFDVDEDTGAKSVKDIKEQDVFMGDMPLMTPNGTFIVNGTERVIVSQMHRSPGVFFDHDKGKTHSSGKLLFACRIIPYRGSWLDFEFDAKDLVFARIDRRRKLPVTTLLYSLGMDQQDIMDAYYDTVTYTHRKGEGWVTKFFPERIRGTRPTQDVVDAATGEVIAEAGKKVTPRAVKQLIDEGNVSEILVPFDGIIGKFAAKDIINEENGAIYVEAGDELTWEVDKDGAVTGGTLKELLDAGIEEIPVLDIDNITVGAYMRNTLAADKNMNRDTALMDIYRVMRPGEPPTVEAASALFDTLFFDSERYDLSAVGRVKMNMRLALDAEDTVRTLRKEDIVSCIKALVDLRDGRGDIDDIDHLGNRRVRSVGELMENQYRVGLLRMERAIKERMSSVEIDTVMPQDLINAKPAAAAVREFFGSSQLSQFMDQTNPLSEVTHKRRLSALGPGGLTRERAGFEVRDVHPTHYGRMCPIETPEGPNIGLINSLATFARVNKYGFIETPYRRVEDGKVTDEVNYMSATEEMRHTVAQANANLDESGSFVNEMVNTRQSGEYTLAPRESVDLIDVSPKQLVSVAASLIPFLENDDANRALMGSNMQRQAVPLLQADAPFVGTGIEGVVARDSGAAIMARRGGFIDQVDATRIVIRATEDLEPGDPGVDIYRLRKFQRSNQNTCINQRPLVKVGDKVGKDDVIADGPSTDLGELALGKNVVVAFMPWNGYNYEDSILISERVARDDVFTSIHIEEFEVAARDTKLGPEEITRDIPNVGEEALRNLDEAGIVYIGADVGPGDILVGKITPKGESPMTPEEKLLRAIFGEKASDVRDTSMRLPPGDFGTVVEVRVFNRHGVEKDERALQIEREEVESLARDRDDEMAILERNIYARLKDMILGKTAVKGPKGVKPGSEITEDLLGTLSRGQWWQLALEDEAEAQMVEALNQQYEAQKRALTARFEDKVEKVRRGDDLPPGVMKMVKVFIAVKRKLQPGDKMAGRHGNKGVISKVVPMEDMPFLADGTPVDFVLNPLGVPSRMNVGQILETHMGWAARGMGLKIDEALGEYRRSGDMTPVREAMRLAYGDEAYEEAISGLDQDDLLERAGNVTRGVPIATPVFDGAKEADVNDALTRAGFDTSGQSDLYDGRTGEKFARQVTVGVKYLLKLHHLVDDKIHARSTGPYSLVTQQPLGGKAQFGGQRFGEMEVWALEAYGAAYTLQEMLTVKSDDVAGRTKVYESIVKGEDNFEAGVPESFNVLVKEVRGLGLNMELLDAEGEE
UniProt A8LM41: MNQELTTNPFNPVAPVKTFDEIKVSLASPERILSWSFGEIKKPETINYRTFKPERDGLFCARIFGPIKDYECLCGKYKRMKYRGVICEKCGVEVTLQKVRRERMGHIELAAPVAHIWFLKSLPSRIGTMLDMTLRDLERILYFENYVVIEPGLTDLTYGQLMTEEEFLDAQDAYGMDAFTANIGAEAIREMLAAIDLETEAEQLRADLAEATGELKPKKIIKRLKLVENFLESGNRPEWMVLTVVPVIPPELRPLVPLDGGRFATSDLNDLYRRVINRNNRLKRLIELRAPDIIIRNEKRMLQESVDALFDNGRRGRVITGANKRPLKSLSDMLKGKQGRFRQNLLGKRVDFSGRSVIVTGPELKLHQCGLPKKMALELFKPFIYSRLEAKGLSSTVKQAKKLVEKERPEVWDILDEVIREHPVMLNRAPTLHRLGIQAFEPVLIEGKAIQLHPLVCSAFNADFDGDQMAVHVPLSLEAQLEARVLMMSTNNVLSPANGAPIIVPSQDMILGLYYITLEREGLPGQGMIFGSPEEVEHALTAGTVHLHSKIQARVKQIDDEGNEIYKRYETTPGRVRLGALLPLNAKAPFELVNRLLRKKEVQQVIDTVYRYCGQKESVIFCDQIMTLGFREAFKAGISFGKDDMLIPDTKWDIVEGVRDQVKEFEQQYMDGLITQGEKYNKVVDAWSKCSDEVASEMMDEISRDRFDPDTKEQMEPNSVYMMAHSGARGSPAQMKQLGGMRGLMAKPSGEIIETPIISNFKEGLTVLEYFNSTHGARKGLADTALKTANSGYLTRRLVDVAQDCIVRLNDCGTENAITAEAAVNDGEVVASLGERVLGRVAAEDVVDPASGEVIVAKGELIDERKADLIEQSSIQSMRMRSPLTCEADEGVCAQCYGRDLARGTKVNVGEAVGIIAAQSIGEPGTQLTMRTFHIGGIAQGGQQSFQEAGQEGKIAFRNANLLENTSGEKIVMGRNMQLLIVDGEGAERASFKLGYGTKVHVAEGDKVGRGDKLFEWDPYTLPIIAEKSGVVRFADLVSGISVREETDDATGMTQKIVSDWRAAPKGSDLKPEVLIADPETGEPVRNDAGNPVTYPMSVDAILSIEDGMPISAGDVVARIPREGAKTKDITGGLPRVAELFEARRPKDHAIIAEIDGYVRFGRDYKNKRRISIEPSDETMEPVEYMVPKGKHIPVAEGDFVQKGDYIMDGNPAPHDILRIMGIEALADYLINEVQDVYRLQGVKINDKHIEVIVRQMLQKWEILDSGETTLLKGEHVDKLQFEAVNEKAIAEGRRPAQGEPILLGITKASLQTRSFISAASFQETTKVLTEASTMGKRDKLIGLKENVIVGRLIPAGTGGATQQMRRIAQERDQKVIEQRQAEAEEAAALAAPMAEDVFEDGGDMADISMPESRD
UniProt A8LR74: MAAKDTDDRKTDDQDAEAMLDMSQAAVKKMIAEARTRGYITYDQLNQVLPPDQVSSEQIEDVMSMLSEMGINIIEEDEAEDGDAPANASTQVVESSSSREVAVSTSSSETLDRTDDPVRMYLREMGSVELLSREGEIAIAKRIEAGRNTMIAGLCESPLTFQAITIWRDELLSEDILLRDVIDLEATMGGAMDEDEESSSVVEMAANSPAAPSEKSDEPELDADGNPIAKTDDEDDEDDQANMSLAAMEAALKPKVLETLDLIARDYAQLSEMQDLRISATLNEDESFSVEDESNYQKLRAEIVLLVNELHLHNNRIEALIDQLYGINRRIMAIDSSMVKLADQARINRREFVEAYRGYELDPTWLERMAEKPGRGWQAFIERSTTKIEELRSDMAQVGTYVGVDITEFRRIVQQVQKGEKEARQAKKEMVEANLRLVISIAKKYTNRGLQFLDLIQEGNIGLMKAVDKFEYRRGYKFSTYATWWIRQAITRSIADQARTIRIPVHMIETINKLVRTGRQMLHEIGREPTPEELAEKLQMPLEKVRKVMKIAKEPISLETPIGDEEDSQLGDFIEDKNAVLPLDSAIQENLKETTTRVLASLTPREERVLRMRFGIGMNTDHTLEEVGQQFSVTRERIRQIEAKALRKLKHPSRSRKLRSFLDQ

Target: Dshi_1135-Strep fusion protein (Dinoroseobacter shibae) (UniProt A8LHT0)
Experiment: affinity purification with mass spectrometry; D. shibae DS266 grown in the dark, under blue light (467 nm) or white light; in vivo cross-linking with 0.125% formaldehyde; Dshi_1135-Strep bait on a Strep-Tactin column; elution fractions by nanoLC-MS/MS, compared with the proteome of the cell extract

binding | Substance
binds | RpoB, RNA polymerase subunit beta (from UniProt A8LM40 1-1378)
binds | RpoC, RNA polymerase subunit beta' (from UniProt A8LM41 1-1415)
binds | RpoD, RNA polymerase sigma factor (from UniProt A8LR74 1-664)

Results are given in words; binding and its absence hold for the method and conditions named. In cells and extracts the contact can be indirect. These calls come from enrichment with a bait or labelling near it, and not all partners need be listed.
